Data from article PMC2708071 (Journal of medicinal chemistry, 2009).

Test system: 50 kinases
Assay: Millipore kinase profiler, panel of 50 kinases
Type: biochemical
Conditions: inhibitor 10 nM

CN[C@@H]1C[C@H]2O[C@@](C)([C@@H]1OC)n1c3ccccc3c3c4c(c5c6ccccc6n2c5c31)C(=O)NC4 [staurosporine]
number of the 50 kinases inhibited to below 85% activity (greater than 15% inhibition): more than half
